Data: publication PMC4031084, “The Phytochrome B/Phytochrome C Heterodimer Is Necessary for Phytochrome C-Mediated Responses in Rice Seedlings” (PLoS ONE, 2014)
No constants are given. Whether binding was seen depends on the method and setting. For part of these data: Binding seen in cells or lysates may run through a third protein. Some binding calls cover weakened binding; strength is not graded here. For part of these data: Sequences can lack the tags named with a protein.

T1: rice phytochrome C (phyC), native (rice, Oryza sativa L. cv. Nipponbare (endogenous in seedlings)) (UniProt Q10CQ8)
T1 sequence: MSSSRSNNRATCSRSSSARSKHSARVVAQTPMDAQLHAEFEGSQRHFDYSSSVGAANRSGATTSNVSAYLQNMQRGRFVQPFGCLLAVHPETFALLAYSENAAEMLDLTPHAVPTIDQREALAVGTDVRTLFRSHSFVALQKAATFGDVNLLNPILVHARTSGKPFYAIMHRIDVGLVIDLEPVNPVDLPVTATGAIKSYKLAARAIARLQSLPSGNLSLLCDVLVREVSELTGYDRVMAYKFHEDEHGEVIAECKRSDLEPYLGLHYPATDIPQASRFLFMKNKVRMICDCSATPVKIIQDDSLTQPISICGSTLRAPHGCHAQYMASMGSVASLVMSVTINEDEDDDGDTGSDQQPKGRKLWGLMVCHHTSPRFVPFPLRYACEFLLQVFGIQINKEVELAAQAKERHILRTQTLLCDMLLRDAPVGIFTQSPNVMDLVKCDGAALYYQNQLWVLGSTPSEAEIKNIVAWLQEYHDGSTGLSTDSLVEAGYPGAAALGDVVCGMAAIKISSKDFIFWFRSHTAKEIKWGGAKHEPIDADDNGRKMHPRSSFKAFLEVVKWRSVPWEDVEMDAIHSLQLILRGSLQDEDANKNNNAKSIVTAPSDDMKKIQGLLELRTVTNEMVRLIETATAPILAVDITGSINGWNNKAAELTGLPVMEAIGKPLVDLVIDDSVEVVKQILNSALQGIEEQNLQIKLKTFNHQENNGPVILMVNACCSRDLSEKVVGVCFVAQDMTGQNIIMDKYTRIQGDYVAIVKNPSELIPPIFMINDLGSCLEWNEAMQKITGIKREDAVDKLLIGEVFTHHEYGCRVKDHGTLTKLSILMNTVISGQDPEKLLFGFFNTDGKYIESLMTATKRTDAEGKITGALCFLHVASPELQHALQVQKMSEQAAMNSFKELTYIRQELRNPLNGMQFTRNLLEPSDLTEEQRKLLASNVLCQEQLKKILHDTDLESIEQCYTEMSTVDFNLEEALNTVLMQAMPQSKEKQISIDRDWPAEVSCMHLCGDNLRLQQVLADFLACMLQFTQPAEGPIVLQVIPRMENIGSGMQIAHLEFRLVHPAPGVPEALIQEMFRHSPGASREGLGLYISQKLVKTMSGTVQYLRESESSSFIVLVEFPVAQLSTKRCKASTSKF

T2: phyC-GFP fusion protein (rice PHYC-GFP) (rice) (UniProt Q10CQ8)
T2 sequence: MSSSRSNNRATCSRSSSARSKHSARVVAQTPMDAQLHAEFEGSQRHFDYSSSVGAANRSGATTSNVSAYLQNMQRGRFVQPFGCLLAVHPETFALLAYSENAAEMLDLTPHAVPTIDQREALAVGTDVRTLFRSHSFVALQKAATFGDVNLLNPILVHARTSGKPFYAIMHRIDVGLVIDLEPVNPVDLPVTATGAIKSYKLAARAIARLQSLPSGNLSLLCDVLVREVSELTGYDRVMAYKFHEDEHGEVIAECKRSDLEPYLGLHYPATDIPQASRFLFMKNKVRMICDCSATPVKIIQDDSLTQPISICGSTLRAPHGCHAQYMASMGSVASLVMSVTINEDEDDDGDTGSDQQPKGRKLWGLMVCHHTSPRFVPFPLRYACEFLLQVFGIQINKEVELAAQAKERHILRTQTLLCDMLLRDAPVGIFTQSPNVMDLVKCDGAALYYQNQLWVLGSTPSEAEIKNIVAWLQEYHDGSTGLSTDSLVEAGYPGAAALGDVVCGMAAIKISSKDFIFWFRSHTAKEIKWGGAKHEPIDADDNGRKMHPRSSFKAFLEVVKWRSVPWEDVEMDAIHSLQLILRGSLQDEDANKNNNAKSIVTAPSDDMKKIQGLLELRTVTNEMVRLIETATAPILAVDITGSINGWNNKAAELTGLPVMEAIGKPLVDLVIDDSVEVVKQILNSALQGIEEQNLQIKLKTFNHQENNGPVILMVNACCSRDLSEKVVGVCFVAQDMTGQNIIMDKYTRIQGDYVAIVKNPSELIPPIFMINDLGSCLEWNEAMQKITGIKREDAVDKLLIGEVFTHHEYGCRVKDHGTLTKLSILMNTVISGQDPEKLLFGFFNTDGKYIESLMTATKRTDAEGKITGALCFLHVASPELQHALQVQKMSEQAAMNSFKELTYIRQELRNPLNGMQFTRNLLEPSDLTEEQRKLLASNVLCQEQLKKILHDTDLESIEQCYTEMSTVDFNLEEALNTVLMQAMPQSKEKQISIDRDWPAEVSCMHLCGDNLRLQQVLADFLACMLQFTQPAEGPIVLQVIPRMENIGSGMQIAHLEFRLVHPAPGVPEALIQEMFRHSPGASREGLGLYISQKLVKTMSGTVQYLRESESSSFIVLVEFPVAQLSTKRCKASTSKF


Legend:
[1] = molecular target: T1, rice phytochrome C (phyC), native (rice, Oryza sativa L. cv. Nipponbare (endogenous in seedlings)); experiment: co-IP; individual SEC fractions (#17-#26, Superdex 200) of protein extract from 7-day-old etiolated WT seedlings, immunoprecipitated with anti-PHYC antibody; phyB and phyC detected by immunoblotting
[2] = molecular target: T1, rice phytochrome C (phyC), native (rice, Oryza sativa L. cv. Nipponbare (endogenous in seedlings)); experiment: SEC; protein extracts (1 mg total soluble protein) of etiolated seedlings of WT and phytochrome single and double mutants on Superdex 200 HR 10/30; 50 mM Na-phosphate pH 7.0, 150 mM NaCl, 4 C; fractions immunoblotted with anti-PHYA, anti-PHYB, anti-PHYC; column calibrated with molecular weight standards
[3] = molecular target: T2, phyC-GFP fusion protein (rice PHYC-GFP) (rice); experiment: co-IP; protein extracts of rice seedlings (200 ug from dark-grown, 500 ug from continuous white-light-grown), precleared, incubated 3-4 h at 4 C with anti-PHYC antibody on protein A-Sepharose; washed six times with NETN buffer containing 900 mM NaCl and twice with NETN; immunoblot with anti-PHYB and anti-PHYC
[4] = molecular target: T1, rice phytochrome C (phyC), native (rice, Oryza sativa L. cv. Nipponbare (endogenous in seedlings)); experiment: as above

| binding [1] | binding [2] | binding [3] | binding [4] | Binder |
| --- | --- | --- | --- | --- |
| binds | binds | binds | binds | rice phytochrome B (phyB), native (natural protein, UniProt Q10MG9 1-1171, looked up, phytochrome B of rice (Oryza sativa L. cv. Nipponbare), native protein in seedling extracts; Native photoreceptor; source: endogenous, soluble protein extract of rice seedlings (etiolated or white-light-grown)) MASGSRATPTRSPSSARPAAPRHQHHHSQSSGGSTSRAGGGGGGGGGGGGGAAAAESVSKAVAQYTLDARLHAVFEQSGASGRSFDYTQSLRASPTPSSEQQIAAYLSRIQRGGHIQPFGCTLAVADDSSFRLLAYSENTADLLDLSPHHSVPSLDSSAVPPPVSLGADARLLFAPSSAVLLERAFAAREISLLNPLWIHSRVSSKPFYAILHRIDVGVVIDLEPARTEDPALSIAGAVQSQKLAVRAISRLQALPGGDVKLLCDTVVEYVRELTGYDRVMVYRFHEDEHGEVVAESRRNNLEPYIGLHYPATDIPQASRFLFRQNRVRMIADCHAAPVRVIQDPALTQPLCLVGSTLRSPHGCHAQYMANMGSIASLVMAVIISSGGDDDHNISRGSIPSAMKLWGLVVCHHTSPRCIPFPLRYACEFLMQAFGLQLNMELQLAHQLSEKHILRTQTLLCDMLLRDSPTGIVTQSPSIMDLVKCDGAALYYHGKYYPLGVTPTEVQIKDIIEWLTMCHGDSTGLSTDSLADAGYPGAAALGDAVSGMAVAYITPSDYLFWFRSHTAKEIKWGGAKHHPEDKDDGQRMHPRSSFKAFLEVVKSRSLPWENAEMDAIHSLQLILRDSFRDSAEGTSNSKAIVNGQVQLGELELRGIDELSSVAREMVRLIETATVPIFAVDTDGCINGWNAKVAELTGLSVEEAMGKSLVNDLIFKESEETVNKLLSRALRGDEDKNVEIKLKTFGPEQSKGPIFVIVNACSSRDYTKNIVGVCFVGQDVTGQKVVMDKFINIQGDYKAIVHNPNPLIPPIFASDENTCCSEWNTAMEKLTGWSRGEVVGKLLVGEVFGNCCRLKGPDALTKFMIVLHNAIGGQDCEKFPFSFFDKNGKYVQALLTANTRSRMDGEAIGAFCFLQIASPELQQAFEIQRHHEKKCYARMKELAYIYQEIKNPLNGIRFTNSLLEMTDLKDDQRQFLETSTACEKQMSKIVKDASLQSIEDGSLVLEKGEFSLGSVMNAVVSQVMIQLRERDLQLIRDIPDEIKEASAYGDQYRIQQVLCDFLLSMVRFAPAENGWVEIQVRPNIKQNSDGTDTMLFLFRFACPGEGLPPEIVQDMFSNSRWTTQEGIGLSICRKILKLMGGEVQYIRESERSFFHIVLELPQPQQAASRGTS |
|  |  |  | binds | rice PHYB expressed from full-length cDNA in transgenic lines (protein, UniProt Q10MG9 1-1171) MASGSRATPTRSPSSARPAAPRHQHHHSQSSGGSTSRAGGGGGGGGGGGGGAAAAESVSKAVAQYTLDARLHAVFEQSGASGRSFDYTQSLRASPTPSSEQQIAAYLSRIQRGGHIQPFGCTLAVADDSSFRLLAYSENTADLLDLSPHHSVPSLDSSAVPPPVSLGADARLLFAPSSAVLLERAFAAREISLLNPLWIHSRVSSKPFYAILHRIDVGVVIDLEPARTEDPALSIAGAVQSQKLAVRAISRLQALPGGDVKLLCDTVVEYVRELTGYDRVMVYRFHEDEHGEVVAESRRNNLEPYIGLHYPATDIPQASRFLFRQNRVRMIADCHAAPVRVIQDPALTQPLCLVGSTLRSPHGCHAQYMANMGSIASLVMAVIISSGGDDDHNISRGSIPSAMKLWGLVVCHHTSPRCIPFPLRYACEFLMQAFGLQLNMELQLAHQLSEKHILRTQTLLCDMLLRDSPTGIVTQSPSIMDLVKCDGAALYYHGKYYPLGVTPTEVQIKDIIEWLTMCHGDSTGLSTDSLADAGYPGAAALGDAVSGMAVAYITPSDYLFWFRSHTAKEIKWGGAKHHPEDKDDGQRMHPRSSFKAFLEVVKSRSLPWENAEMDAIHSLQLILRDSFRDSAEGTSNSKAIVNGQVQLGELELRGIDELSSVAREMVRLIETATVPIFAVDTDGCINGWNAKVAELTGLSVEEAMGKSLVNDLIFKESEETVNKLLSRALRGDEDKNVEIKLKTFGPEQSKGPIFVIVNACSSRDYTKNIVGVCFVGQDVTGQKVVMDKFINIQGDYKAIVHNPNPLIPPIFASDENTCCSEWNTAMEKLTGWSRGEVVGKLLVGEVFGNCCRLKGPDALTKFMIVLHNAIGGQDCEKFPFSFFDKNGKYVQALLTANTRSRMDGEAIGAFCFLQIASPELQQAFEIQRHHEKKCYARMKELAYIYQEIKNPLNGIRFTNSLLEMTDLKDDQRQFLETSTACEKQMSKIVKDASLQSIEDGSLVLEKGEFSLGSVMNAVVSQVMIQLRERDLQLIRDIPDEIKEASAYGDQYRIQQVLCDFLLSMVRFAPAENGWVEIQVRPNIKQNSDGTDTMLFLFRFACPGEGLPPEIVQDMFSNSRWTTQEGIGLSICRKILKLMGGEVQYIRESERSFFHIVLELPQPQQAASRGTS |
|  |  |  | binds | PHYB(C364A), chromophore-less rice phyB (protein, UniProt Q10MG9 1-1171) MASGSRATPTRSPSSARPAAPRHQHHHSQSSGGSTSRAGGGGGGGGGGGGGAAAAESVSKAVAQYTLDARLHAVFEQSGASGRSFDYTQSLRASPTPSSEQQIAAYLSRIQRGGHIQPFGCTLAVADDSSFRLLAYSENTADLLDLSPHHSVPSLDSSAVPPPVSLGADARLLFAPSSAVLLERAFAAREISLLNPLWIHSRVSSKPFYAILHRIDVGVVIDLEPARTEDPALSIAGAVQSQKLAVRAISRLQALPGGDVKLLCDTVVEYVRELTGYDRVMVYRFHEDEHGEVVAESRRNNLEPYIGLHYPATDIPQASRFLFRQNRVRMIADCHAAPVRVIQDPALTQPLCLVGSTLRSPHGAHAQYMANMGSIASLVMAVIISSGGDDDHNISRGSIPSAMKLWGLVVCHHTSPRCIPFPLRYACEFLMQAFGLQLNMELQLAHQLSEKHILRTQTLLCDMLLRDSPTGIVTQSPSIMDLVKCDGAALYYHGKYYPLGVTPTEVQIKDIIEWLTMCHGDSTGLSTDSLADAGYPGAAALGDAVSGMAVAYITPSDYLFWFRSHTAKEIKWGGAKHHPEDKDDGQRMHPRSSFKAFLEVVKSRSLPWENAEMDAIHSLQLILRDSFRDSAEGTSNSKAIVNGQVQLGELELRGIDELSSVAREMVRLIETATVPIFAVDTDGCINGWNAKVAELTGLSVEEAMGKSLVNDLIFKESEETVNKLLSRALRGDEDKNVEIKLKTFGPEQSKGPIFVIVNACSSRDYTKNIVGVCFVGQDVTGQKVVMDKFINIQGDYKAIVHNPNPLIPPIFASDENTCCSEWNTAMEKLTGWSRGEVVGKLLVGEVFGNCCRLKGPDALTKFMIVLHNAIGGQDCEKFPFSFFDKNGKYVQALLTANTRSRMDGEAIGAFCFLQIASPELQQAFEIQRHHEKKCYARMKELAYIYQEIKNPLNGIRFTNSLLEMTDLKDDQRQFLETSTACEKQMSKIVKDASLQSIEDGSLVLEKGEFSLGSVMNAVVSQVMIQLRERDLQLIRDIPDEIKEASAYGDQYRIQQVLCDFLLSMVRFAPAENGWVEIQVRPNIKQNSDGTDTMLFLFRFACPGEGLPPEIVQDMFSNSRWTTQEGIGLSICRKILKLMGGEVQYIRESERSFFHIVLELPQPQQAASRGTS |
